Publication PMC6896172, “Successful Targeting of the Warburg Effect in Prostate Cancer by Glucose-Conjugated 1,4-Naphthoquinones” (Cancers, 2019)
The source gives many values for each of these; only a part stands here.

Test system: 22Rv1 cells
Experiment: Global proteome analysis (LC-MS/MS, DIA) of differentially expressed proteins
Assay type: cell-based, human
Procedure: 22Rv1 cells were seeded in T75 culture bottles (4 × 10^6 cells/bottle in 20 mL/bottle), treated for 48 h with the 5 µM of compound 11 or vehicle (DMSO), harvested by scratching, washed twice with ice-cold PBS and flash-frozen. Cells were lysed and sonicated. The protein extracts were then heat-denaturated, reduced, alkylated and digested by trypsin. Peptides were chromatographically separated using full recovery autosampler vials and a nano-UPLC system (Acquity, Waters Corporation, Milford, MS, USA), coupled via electrospray ionization (ESI) to a tandem mass spectrometer equipped with a quadrupole and an orbitrap (QExactive, Thermo Fisher Scientific, Bremen, Germany), using MS/MS mode in data dependent acquisition (DDA) and data independent acquisition (DIA). The peptides, analyzed with DDA-LC-MS/MS, were identified with the search engine Sequest, integrated in the Proteome Discoverer software version 2.0 (Thermo Fischer Scientific) using the human Uniprot protein database (EMBL; Hinxton Cambridge, UK, release December 2018). […] For the details of sample preparation and proceeding, data acquisition and analysis see the Supplementary information. […]
serum (FBS, Invitrogen) and 1% penicillin/streptomycin (Invitrogen)). […]
Cell lines were lysed in 100 mM triethylammonium bicarbonate and 1% w/v sodium deoxycholate buffer followed by probe sonication to destroy polynucleotides and heat induce protein denaturing at 99 °C for 5 min. Protein concentrations were estimated with a bicinchonic acid (BCA) protein assay (Thermo Fisher Scientific, Bremen, Germany). 20 µg of protein were reduced in presence of 10 mM dithiotreithol (Sigma Aldrich) for 30 min at 60 °C followed by cysteine alkylation with 20 mM iodo acetamide (Sigma Aldrich) for 30 min at 37 °C in the dark and enzymatic degradation with sequencing grade trypsin (Promega) over night at 37 °C. Digestion was quenched with 1% formic acid (FA), precipitated sodium deoxycholate removed by centrifugation for 5 min at 14,000 g and the supernatant was dried in a vacuum centrifuge.
LC-MS/MS in Data Dependent and Data Independent Mode
Samples were resuspended in 0.1% FA and transferred into a full recovery autosampler vial (Waters). Chromatographic separation was achieved on a nano -UPLC system (Acquity, Waters Corporation, Milford, MS, USA) with a two-buffer-system (buffer A: 0.1% FA in water, buffer B:
0.1% FA in Acetonitrile (ACN), both at pH = 3). Attached to the UPLC was a reversed -phase peptide trapping column (Symmetry C18, 180 µm × 20 mm, 100 Å pore size, 5 µm particle size) for desalting, followed by a reversed-phase capillary separation of the tryptic peptides (BEH C18; 75 µm × 200 mm, 130 Å pore size, 1.7 µm particle size), using a 60 min gradient with increasing ACN concentration from 2–30% ACN. The eluting peptides were analyzed on a quadrupole-orbitrap mass spectrometer (QExactive, Thermo Fisher Scientific, Bremen, Germany) in data dependent acquisition (DDA) and data independent acquisition (DIA) for quantification.
In DDA mode, one replicate of each cell line was randomly chosen and 1 µg per sample was used per LC-MS/MS run to build a reference spectral library used for data extraction of samples acquired in DIA mode. For DDA, the 12 most intense ions per precursor scan (1 × 10 6 ions, 70,000 Resolution, 120 ms fill time) were analyzed by MS/MS (HCD at 25 normalized collision energy, 1 × 105 ions, 17,500 Resolution, 50 ms fill time) in a range of 400–1300 m/z. A dynamic precursor exclusion of 20 s was used. For DIA, 1 µg of each sample was analyzed using a 30 sequential 20 Da fixed window method covering the mass range from 400 –1000 m/z. Per cycle, 2 precursor scans (1 × […]
28 normalized collision energy, 1 × 106 ions, 17,500 Resolution, 50 ms fill time) were performed.
After the first precursor scan, 15 MS/MS scans were performed covering the precursor mass range from 400–700 m/z followed by the second precursor scan and another 15 MS/MS scans ranging from […]
LC-MS/MS Data Processing and Analysis […]

What does the source list for `CC1(C)OC2OC(C(O)COC3=CC(=O)c4cccc(O)c4C3=O)C(O)C2O1` (centres unmarked) [Compound 11]?
Fold change (treated / control) (2AAA_HUMAN P30153): 1.251; Fold change (treated / control) (6PGL_HUMAN O95336): 1.328; Fold change (treated / control) (1433E_HUMAN P62258): 1.343; Fold change (treated / control) (1433Z_HUMAN P63104): 1.228; Fold change (treated / control) (AATC_HUMAN P17174): 1.532; Fold change (treated / control) (AATM_HUMAN P00505): 1.121; Fold change (treated / control) (ABCE1_HUMAN P61221): 0.5106; Fold change (treated / control) (ABHEB_HUMAN Q96IU4): 1.254; Fold change (treated / control) (ABRAL_HUMAN Q9P1F3): 1.957; Fold change (treated / control) (ACAP1_HUMAN Q15027): 1.421; Fold change (treated / control) (ACON_HUMAN Q99798): 0.6906; Fold change (treated / control) (ACTBL_HUMAN Q562R1): 1.3723; Fold change (treated / control) (ACTB_HUMAN P60709): 1.585; Fold change (treated / control) (ACTG_HUMAN P63261): 1.692; Fold change (treated / control) (ACTN4_HUMAN O43707): 1.276; Fold change (treated / control) (AGR2_HUMAN O95994): 3.629; Fold change (treated / control) (AHDC1_HUMAN Q5TGY3): 1.829; Fold change (treated / control) (AK1C2_HUMAN P52895): 5.517; Fold change (treated / control) (AL4A1_HUMAN P30038): 0.7522; Fold change (treated / control) (AL9A1_HUMAN P49189): 1.232; Fold change (treated / control) (ALDOA_HUMAN P04075): 1.319; Fold change (treated / control) (ALDOC_HUMAN P09972): 1.376; Fold change (treated / control) (AN32A_HUMAN P39687): 1.403; Fold change (treated / control) (ANXA2_HUMAN P07355): 3.158; Fold change (treated / control) (ANXA4_HUMAN P09525): 1.211; Fold change (treated / control) (ANXA5_HUMAN P08758): 1.264; Fold change (treated / control) (ANXA7_HUMAN P20073): 1.193; Fold change (treated / control) (AP1B1_HUMAN Q10567): 0.9203; Fold change (treated / control) (APMAP_HUMAN Q9HDC9): 1.936; Fold change (treated / control) (APOC3_HUMAN P02656): 2.01; Fold change (treated / control) (APOE_HUMAN P02649): 1.93; Fold change (treated / control) (ARID2_HUMAN Q68CP9): 0.5698; Fold change (treated / control) (ARP5L_HUMAN Q9BPX5): 1.173; Fold change (treated / control) (ARSA_HUMAN P15289): 1.315; Fold change (treated / control) (ASAH1_HUMAN Q13510): 1.91; Fold change (treated / control) (ASNA_HUMAN O43681): 1.156; Fold change (treated / control) (AT1B1_HUMAN P05026): 1.129; Fold change (treated / control) (AT5F1_HUMAN P24539): 0.4995; Fold change (treated / control) (ATAD2_HUMAN Q6PL18): 0.5339; Fold change (treated / control) (ATP5I_HUMAN P56385): 1.217; Fold change (treated / control) (BABA2_HUMAN Q9NXR7): 1.187; Fold change (treated / control) (BACH_HUMAN O00154): 1.178; Fold change (treated / control) (BAZ1B_HUMAN Q9UIG0): 0.5909; Fold change (treated / control) (BCLF1_HUMAN Q9NYF8): 1.362; Fold change (treated / control) (BIP_HUMAN P11021): 1.103; Fold change (treated / control) (BRD1_HUMAN O95696): 0.5595; Fold change (treated / control) (C1TC_HUMAN P11586): 0.9204; Fold change (treated / control) (C10_HUMAN Q99622): 0.6968; Fold change (treated / control) (CAB45_HUMAN Q9BRK5): 0.5255; Fold change (treated / control) (CALX_HUMAN P27824): 1.1778; Fold change (treated / control) (CATD_HUMAN P07339): 1.307; Fold change (treated / control) (CAZA1_HUMAN P52907): 1.365; Fold change (treated / control) (CBX3_HUMAN Q13185): 0.7648; Fold change (treated / control) (CBX5_HUMAN P45973): 0.6078; Fold change (treated / control) (CCD86_HUMAN Q9H6F5): 0.6454; Fold change (treated / control) (CD2AP_HUMAN Q9Y5K6): 1.736; Fold change (treated / control) (CHCH5_HUMAN Q9BSY4): 0.3153; Fold change (treated / control) (CHPT1_HUMAN Q8WUD6): 0.4101; Fold change (treated / control) (CHTOP_HUMAN Q9Y3Y2): 0.4309; Fold change (treated / control) (CISD1_HUMAN Q9NZ45): 0.6534; Fold change (treated / control) (CK054_HUMAN Q9H0W9): 1.355; Fold change (treated / control) (CKAP4_HUMAN Q07065): 1.512; Fold change (treated / control) (CLIC1_HUMAN O00299): 1.368; Fold change (treated / control) (CLPT1_HUMAN O96005): 0.5334; Fold change (treated / control) (CLUS_HUMAN P10909): 0.6547; Fold change (treated / control) (CMTD1_HUMAN Q86VU5): 0.6695; Fold change (treated / control) (CNDP2_HUMAN Q96KP4): 1.166; Fold change (treated / control) (COA7_HUMAN Q96BR5): 0.6927; Fold change (treated / control) (COASY_HUMAN Q13057): 0.6716; Fold change (treated / control) (COF1_HUMAN P23528): 1.524; Fold change (treated / control) (COPE_HUMAN O14579): 1.293; Fold change (treated / control) (COPZ1_HUMAN P61923): 1.267; Fold change (treated / control) (COR1C_HUMAN Q9ULV4): 1.273; Fold change (treated / control) (COX17_HUMAN Q14061): 0.3991; Fold change (treated / control) (CPIN1_HUMAN Q6FI81): 0.457; Fold change (treated / control) (CPSF7_HUMAN Q8N684): 0.5898; Fold change (treated / control) (CREL2_HUMAN Q6UXH1): 0.7362; Fold change (treated / control) (CSDE1_HUMAN O75534): 0.3966; Fold change (treated / control) (CSK2B_HUMAN P67870): 1.254; Fold change (treated / control) (CSN5_HUMAN Q92905): 1.871; Fold change (treated / control) (CSN6_HUMAN Q7L5N1): 1.335; Fold change (treated / control) (CTNB1_HUMAN P35222): 0.7244; Fold change (treated / control) (CTXN1_HUMAN P60606): 2.673; Fold change (treated / control) (CX6B1_HUMAN P14854): 0.5635; Fold change (treated / control) (CX7A2_HUMAN P14406): 1.309; Fold change (treated / control) (CYB5B_HUMAN O43169): 1.699; Fold change (treated / control) (CYTB_HUMAN P04080): 1.925; Fold change (treated / control) (CYTC_HUMAN P01034): 0.3985; Fold change (treated / control) (DCAKD_HUMAN Q8WVC6): 0.4938; Fold change (treated / control) (DDB1_HUMAN Q16531): 0.7393; Fold change (treated / control) (DDI2_HUMAN Q5TDH0): 1.4255; Fold change (treated / control) (DDRGK_HUMAN Q96HY6): 1.251; Fold change (treated / control) (DDX5_HUMAN P17844): 0.5576; Fold change (treated / control) (DDX21_HUMAN Q9NR30): 0.6203; Fold change (treated / control) (DDX27_HUMAN Q96GQ7): 0.7632; Fold change (treated / control) (DDX50_HUMAN Q9BQ39): 0.5638; Fold change (treated / control) (DDX52_HUMAN Q9Y2R4): 0.5706; Fold change (treated / control) (DDX56_HUMAN Q9NY93): 0.5433; Fold change (treated / control) (DEK_HUMAN P35659): 0.84; Fold change (treated / control) (DESP_HUMAN P15924): 0.5753; Fold change (treated / control) (DEST_HUMAN P60981): 1.708
